# ± gives the standard deviation of the averaged measurements. Differences between knockout arms are mostly noise.
# Tested on: ZR-75-1
# Assay: relative cell number vs DMSO control (72 h) (% of DMSO); higher = less growth inhibition (more cells)
# Procedure: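 QMAP-Seq: a pool of 5 breast cancer cell lines (ZR-75-1, SKBR3, HCC-38, MDA-MB-231, BT-20), each carrying 12 doxycycline-inducible Cas9 sgRNA perturbations (11 knockouts plus non-targeting sgNT), was treated with compounds for 72 h at four 10-fold doses (10 nM-10 uM or 1 nM-1 uM range). Barcodes were amplified and sequenced, and cell number was interpolated from 293T spike-in standard curves. The result is expressed as % of the median of DMSO wells. Two biological replicates.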
# [1] = sgRNA knockout: sgATF3, 1000 nM
# [2] = sgRNA knockout: sgATF3, 10000 nM
# [3] = sgRNA knockout: sgATF4, 1000 nM
# [4] = sgRNA knockout: sgATF4, 10000 nM
# [5] = sgRNA knockout: sgATF6, 1000 nM
# [6] = sgRNA knockout: sgATF6, 10000 nM
# [7] = sgRNA knockout: sgATG7, 1000 nM
# [8] = sgRNA knockout: sgATG7, 10000 nM
# [9] = sgRNA knockout: sgERN1, 1000 nM
# [10] = sgRNA knockout: sgERN1, 10000 nM
# [11] = sgRNA knockout: sgHSF2, 1000 nM
# [12] = sgRNA knockout: sgHSF2, 10000 nM
# [13] = sgRNA knockout: sgNFE2L2, 10 nM
# [14] = sgRNA knockout: sgNFE2L2, 100 nM
# [15] = sgRNA knockout: sgNFE2L2, 1000 nM
# [16] = sgRNA knockout: sgNFE2L2, 10000 nM
# [17] = sgRNA knockout: sgSLC35F2, 10 nM
# [18] = sgRNA knockout: sgSLC35F2, 100 nM
# [19] = sgRNA knockout: sgSLC35F2, 1000 nM
# [20] = sgRNA knockout: sgSLC35F2, 10000 nM
# [21] = sgRNA knockout: sgXBP1, 1000 nM
# [22] = sgRNA knockout: sgXBP1, 10000 nM
Structure (SMILES),"relative cell number (sgRNA knockout: sgATF3, 10 nM)","relative cell number (sgRNA knockout: sgATF3, 100 nM)",relative cell number [1],relative cell number [2],"relative cell number (sgRNA knockout: sgATF4, 10 nM)","relative cell number (sgRNA knockout: sgATF4, 100 nM)",relative cell number [3],relative cell number [4],"relative cell number (sgRNA knockout: sgATF6, 10 nM)","relative cell number (sgRNA knockout: sgATF6, 100 nM)",relative cell number [5],relative cell number [6],"relative cell number (sgRNA knockout: sgATG7, 10 nM)","relative cell number (sgRNA knockout: sgATG7, 100 nM)",relative cell number [7],relative cell number [8],"relative cell number (sgRNA knockout: sgERN1, 10 nM)","relative cell number (sgRNA knockout: sgERN1, 100 nM)",relative cell number [9],relative cell number [10],"relative cell number (sgRNA knockout: sgHSF2, 10 nM)","relative cell number (sgRNA knockout: sgHSF2, 100 nM)",relative cell number [11],relative cell number [12],relative cell number [13],relative cell number [14],relative cell number [15],relative cell number [16],relative cell number [17],relative cell number [18],relative cell number [19],relative cell number [20],"relative cell number (sgRNA knockout: sgXBP1, 10 nM)","relative cell number (sgRNA knockout: sgXBP1, 100 nM)",relative cell number [21],relative cell number [22]
C=C(C)[C@@H]1CC[C@]2(C(=O)O)CC[C@]3(C)[C@H](CC[C@@H]4[C@@]5(C)CC[C@H](O)C(C)(C)[C@@H]5CC[C@]43C)[C@@H]12 [BetulinicAcid],116 ± 53,86.2 ± 2.2,96.8 ± 15,92.8 ± 5.1,88.2 ± 5,78.9 ± 35,78 ± 17,95.6 ± 11,113 ± 44,119 ± 18,79 ± 12,136 ± 20,124 ± 24,106 ± 12,105 ± 40,84.3 ± 48,90.8 ± 16,69.1 ± 5.4,95.3 ± 20,108 ± 2.4,128 ± 3.2,84.5 ± 8,110 ± 37,88.7 ± 6.5,94.6 ± 8.3,80.3 ± 35,115 ± 59,119 ± 14,48.4 ± 13,105 ± 9.2,59 ± 24,51.9 ± 12,95.8 ± 24,87 ± 11,102 ± 29,102 ± 7
C=C(c1ccc(C(=O)O)cc1)c1cc2c(cc1C)C(C)(C)CCC2(C)C [Bexarotene],99.6 ± 29,61.4 ± 32,83.8 ± 25,73.3 ± 12,101 ± 8.8,64.7 ± 6.4,88.5 ± 13,92.8 ± 39,87.3 ± 10,61.1 ± 29,48 ± 8.8,70.4 ± 15,95.8 ± 13,73.5 ± 12,82.4 ± 14,80.1 ± 11,98.2 ± 6.1,73.8 ± 8.6,89 ± 18,102 ± 4.3,92.7 ± 2.5,69.2 ± 3,87.6 ± 6.9,76.5 ± 22,116 ± 18,97.7 ± 2.2,92.3 ± 5.1,78.8 ± 4.1,60.9 ± 15,48.3 ± 26,55.3 ± 38,47.8 ± 22,103 ± 5.5,73.8 ± 6.9,80.9 ± 5,91.5 ± 8.9
Cc1cc2c(F)c(Oc3ncnn4cc(OC[C@@H](C)O)c(C)c34)ccc2[nH]1 [Brivanib],83.9 ± 10,118 ± 21,85 ± 1.2,38.7 ± 8.9,120 ± 30,64.2 ± 3.4,96.9 ± 36,63.6 ± 1.6,133 ± 37,118 ± 88,92.35 ± 0.61,41.1 ± 15,118 ± 29,67 ± 13,84.3 ± 22,48.2 ± 9,106.2 ± 0.89,105 ± 6.9,86.1 ± 43,52.4 ± 21,89.7 ± 25,100 ± 55,88.6 ± 13,54.9 ± 14,93.6 ± 8.9,110 ± 23,94.2 ± 8.1,47.28 ± 0.29,58.1 ± 5.8,106 ± 22,95.5 ± 42,40.4 ± 11,103 ± 3.1,106 ± 14,99.9 ± 13,54.4 ± 7.5
O=C(O)CCCc1ccc(N(CCCl)CCCl)cc1 [Chlorambucil],95.9 ± 30,133 ± 4.7,106 ± 22,68.5 ± 3,110 ± 6.3,89.4 ± 5.2,64.8 ± 10,56.2 ± 13,68.7 ± 50,85.4 ± 21,51.5 ± 16,53.3 ± 4,85.9 ± 30,82.5 ± 6.6,52.53 ± 0.16,86.7 ± 5.7,97.2 ± 45,109 ± 55,90 ± 3.2,65 ± 17,111 ± 5.8,109 ± 32,97.1 ± 4,70.8 ± 6.5,105 ± 29,80.1 ± 6.9,89.3 ± 6.8,62.9 ± 14,91 ± 35,112 ± 36,80.8 ± 12,38.9 ± 21,98 ± 21,89.5 ± 7.3,108 ± 29,56.3 ± 5
